# The name of at least one read-out is uncertain.
# System: acetylated α-tubulin
# Test: cell-based assay of MT-stabilization: acetylated α-tubulin in QBI293 cell lysates by ELISA
# Details: Table 4, QB1293 cells, 4 h, positive control 100 nM cevipabulin
# Procedure: All test compounds were evaluated in a previously described cell-based assay of MT-stabilization (see Kovalevich, J., et al. (2016) Characterization of Brain-Penetrant Pyrimidine-Containing Molecules with Differential Microtubule-Stabilizing Activities Developed as Potential Therapeutic Agents for Alzheimer's Disease and Related Tauopathies. J Pharmacol Exp Ther 357, 432-450, incorporated herein by reference), in which compound-dependent changes in tubulin polymerization and total tubulin levels were determined after 4 h of incubation of QBI293 cells with 1 and 10 μM compound via quantification of acetylated α-tubulin and total tubulin in cell lysates by ELISA.
# Novel C6 nitrile- and alkyne-substituted triazolopyrimidine examples that have improved in vitro activity relative to previously described examples, with the general structure depicted in Formula I. The activity of the novel C6-nitrile substituted compounds were tested in a previously described cellular assay of MT-stabilization (Kovalevich, J., et al. (2016)). As summarized in Table 2. below, eighteen examples were synthesized and tested. In all cases, these compounds were confirmed to be active Class I triazolopyrimidines. […] Data are expressed as the fold-change relative to vehicle-treated cells. *p<0.05 and **p<0.01 by one-way ANOVA. […]
smiles,measurement,setting,value
"C[C@@H](Nc1c(-c2c(F)cc(C#CCN(C)C)cc2F)c(Cl)nc2ncnn12)C(C)(C)C [TAL-555, (R)-5-chloro-6-(4-(3-(dimethylamino)prop-1-yn-1-yl)-2,6-difluorophenyl)-N-(3,3-dimethylbutan-2-yl)-[1,2,4]triazolo[1,5-a]pyrimidin-7-amine]","AcTub 1 μM, number in parentheses (fold-change of AcTub over positive control-treated cells)",1 μM,0.45 fold-change
same,"AcTub 10 μM, number in parentheses (fold-change of AcTub over positive control-treated cells)",10 μM,1.43 fold-change

# Source: patent US20230167121A1, “SUBSTITUTED {1,2,4,} TRIAZOLO{1,5-A} PYRIMIDINE COMPOUNDS AND USE IN STABILIZING MICROTUBULES” (THE TRUSTEES OF THE UNIVERSITY OF PENNSYLVANIA, priority 2020, published 2023)
